# In PubChem BioAssay AID1794844 (National Center for Advancing Translational Sciences (NCATS), 2023):
# The chains behind the UniProt entries cited, without tags or fusion partners. Where a name states a change or a piece, a line headed by the entry shows the natural chain unless it says otherwise.
# UniProt C7C422: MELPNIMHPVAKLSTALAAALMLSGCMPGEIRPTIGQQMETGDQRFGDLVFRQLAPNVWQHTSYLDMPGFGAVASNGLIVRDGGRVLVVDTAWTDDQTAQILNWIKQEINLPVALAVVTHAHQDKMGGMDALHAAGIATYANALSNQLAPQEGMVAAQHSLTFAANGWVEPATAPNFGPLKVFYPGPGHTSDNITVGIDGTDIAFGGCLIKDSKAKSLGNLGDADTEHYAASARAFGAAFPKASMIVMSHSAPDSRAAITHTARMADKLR
# Out of some 2,800 compounds screened, fewer than 10 were called active. About 7% were inconclusive and are not listed. Calls follow the shape of the dose curve; as a rule, active = well fitted inhibition curve with a large enough effect; inconclusive = small, poorly fitted or top-dose-only effect; inactive = no such curve, though single readings can be large or run the other way. The list shows a part of the results.
# Molecular target: Metallo-beta-lactamase type 2 (Klebsiella pneumoniae) (UniProt C7C422)
# Test: qHTS to identify inhibitors of the New Delhi Metallo-beta-lactamase (NDM): Nitrocefin screen against the machine-based learning selections. Also: % of control where 0% means no effect.
# Conditions: NDM-1 enzyme, nitrocefin hydrolysis, absorbance 485 nm; activity, negative = inhibition: at the top concentration
# Outline: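 Hydrolysis by 2 nM NDM-1 was followed by absorbance after >30 min compound preincubation in HEPES pH 7.0 buffer with 1 uM Zn2SO4. For nitrocefin (16.7 uM, 15 min, 485 nm) and meropenem (50 uM, 30 min, 300 nm), each substrate ran on separate plates.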
row,SMILES,"activity, negative = inhibition"
1,OC(c1ccc2c(c1)CCO2)c1nc(Nc2cccc(C(F)(F)F)c2)n[nH]1 (configuration not stated),inactive: 0.833% [at 57.5 µM]
2,O=C1CCCCCN1CC(=O)N1CCCC(OCc2ccccc2)C1 (configuration not stated),inactive: -3.46%
3,COc1ccc(N2C(=O)[C@@H]3[C@@H](CCN3C(=O)C(C)(C)C)N(Cc3ccccc3)C2=O)cc1,inactive: 0.894% [at 57.5 µM]
4,O=C1[C@@H]2[C@@H](CCN2C(=O)NC2CCCCC2)N(Cc2cccs2)C(=O)N1c1cccc(F)c1,inactive: 1.63%
5,COCCNS(=O)(=O)c1cc(C(=O)O)cc(-c2cccc3cccnc23)c1,inactive: 3.02%
6,O=C(NC[C@H]1OC[C@@H](NCc2ccccc2O)[C@@H]1O)Nc1ccccc1,inactive: -1.45% [at 57.5 µM]
7,C[C@H]1[C@@H]2[C@@H](O)C([C@H](C)C(=O)NCc3ccccn3)CC[C@@]2(C)CC[C@@H]1NC(=O)c1ccc(C#N)cc1 (some centres not stated),inactive: 2.85%
8,O=C1COc2ccc(-c3ccsc3)nc2CN1,inactive: 0.133% [at 76.7 µM]
9,Cc1noc([C@@H](C)NC(=O)Cc2ccccc2)c1C(=O)O,inactive: -1.32% [at 76.7 µM]
10,COc1ccc(-c2noc(C(=O)NC3CCC3)c2[C@H](C)O)cc1,inactive: 0.238% [at 57.5 µM]
11,CC(C)NC(=O)N[C@H]1CCN2C(=O)c3cc(-c4ccc(F)cc4F)ccc3NC(=O)[C@H]12,inactive: -2.13% [at 57.5 µM]
12,CC(=O)c1sccc1-c1cc(NCc2ccccn2)nc2[nH]ccc12,inactive: 4.34%
13,CC1=C[C@@H](CNC(=O)COc2ccccc2)[C@H](C(C)C)C[C@H]1Cc1nc2ccncc2[nH]1,inactive: -7.2% [at 57.5 µM]
14,O=C(NCc1nnc2ccc(-c3ccc(F)cc3)nn12)c1ccoc1,inactive: -0.325%
15,O=C(C1CC2(CCNCC2)CN1)N1CCC(c2nc3ccccc3[nH]2)CC1 (configuration not stated),inactive: 9.6%
16,Nc1nc(CCC(=O)N2CCn3nc(C(O)c4ccccc4)cc3C2)cs1 (configuration not stated),inactive: 5.85%
17,COCCN1C(=O)CO[C@H]2CN(C(=O)c3ccc(F)cc3)C[C@H]21,inactive: -1.8% [at 57.5 µM]
18,COc1ccc(NC(=O)Cn2cccc2-c2nc(-c3ccccc3)no2)cc1,inactive: 5.31%
19,O=C(Cc1ccc(F)cc1)N1CCc2nc(C3CC3)nc(-c3ccc(Cl)cc3)c2C1,inactive: -2.03%
20,Cn1nc(C2CCN(C(=O)c3cnccn3)CC2)c2c1CCOC2,inactive: -0.775%
21,COCCNc1ncc(-c2cccc(O)c2)c2c1OCC2,inactive: 0.2% [at 76.7 µM]
22,Oc1ccccc1CN1CCNc2cnc(OCc3cccnc3)cc2C1,inactive: 4.53% [at 57.5 µM]
23,COCCNC(=O)[C@@H]1CCC[C@@H](NC(=O)NC2(c3ccccc3)CCOCC2)CN(C)C(=O)C1,inactive: 1.22%
24,CCN(CC)C(=O)[C@@H]1CCC[C@@H](NC(=O)c2ccc(C#N)cc2)CN(C)C(=O)C1,inactive: 2.44% [at 57.5 µM]
25,COc1ccc(CNC(=O)CC[C@H]2CNC(=O)[C@@H]3[C@@H](CCN3Cc3ncc[nH]3)N2C)cc1,inactive: -2.57%

row,SMILES,"activity, negative = inhibition"
1,O=C(N[C@H]1CCN2C(=O)c3cc(-c4ccc5c(c4)OCO5)ccc3NC(=O)[C@H]12)C1CCCC1,inactive: -0.0308%
2,COc1ccc(CCCNC(=O)c2ccc(N3CCC(N(C)C)C3)nc2)cc1 (configuration not stated),inactive: -9.19%
3,Cn1c(CNCC2(COc3cccnc3)C[C@@H](O)[C@@H](O)C2)nc2ccccc21 (some centres not stated),inactive: -6.67%
4,COCCNC(=O)[C@H]1CCC[C@H]1NC(=O)c1ccc(OC)cc1,inactive: -13.1%
5,COc1cccc(CN[C@@H]2CCC[C@@H](C(=O)NCc3cc(C)on3)CC(=O)N(C)C2)c1,inactive: -0.652% [at 57.5 µM]
6,CC(=O)NC1(C)CN(Cc2ccc(-c3cccc(C(F)(F)F)c3)nc2)C1,inactive: -1.89% [at 57.5 µM]
7,COC(=O)[C@H](Cc1ccc(OC)cc1)NC(=O)[C@H]1CN(C(=O)c2ccc(N(C)C)cc2)CCN1C(=O)C1CCCCC1,inactive: -2.54%
8,C=CCC1(CO)CCCN(C(=O)c2cccc(N3CCNC3=O)c2)C1 (configuration not stated),inactive: 0.467%
9,Cc1cc(=O)n(CC(=O)Nc2cccc(F)c2)c(N2CCc3ccccc3C2)n1,inactive: -0.519%
10,O=S(=O)(c1cccs1)N1CCC(n2cnnc2-c2ccccc2)CC1,inactive: 1.04%
11,Nc1cc(N2CC[C@@H](N3CCN(CCc4ccccc4)CC3)[C@H](O)C2)nc(N)n1,inactive: -1.07%
12,Cn1ccnc1CN1C(=O)CO[C@H](c2ccc(NC(=O)CC(C)(C)C)cc2)[C@H]1CO,inactive: -1.71% [at 57.5 µM]
13,Cc1ccc(F)c(C(=O)N[C@H](Cc2ccccc2)C2CC(O)C2)c1Cl (some centres not stated),inactive: 2.51%
14,O=C(NCC1(O)CCCCC1)C1CCN(c2nc(-c3ccccc3)nc3c2CCC3)CC1,inactive: -5.8%
15,CCOc1cc(CN2CCC(C)(c3noc(C4CCOCC4)n3)CC2)ccc1O,inactive: -0.443%
16,CC(C)CN1CC[C@H](c2nc3ncccc3[nH]2)C1,inactive: -0.79% [at 76.7 µM]
17,CCCCCC(=O)N[C@H]1C[C@@H](Cc2cc(CN3CCOCC3)on2)C1(C)C,inactive: -21.3% [at 57.5 µM]
18,Cc1noc2c(N3CCOCC3)cc(-c3cccnc3)nc12,inactive: 5.33% [at 57.5 µM]
19,c1ccc(CCCc2noc(-c3ccc(NCc4ccccn4)nc3)n2)cc1,inactive: 19%
20,Cc1ccc(S(=O)(=O)N2C[C@@H]3OCC(=O)N(Cc4ccc(F)cc4)[C@@H]3C2)cc1,inactive: -6.21% [at 57.5 µM]
21,O=C(Nc1ccc(F)cc1)N1C[C@@H]2OCC(=O)N(Cc3ccc(OC(F)(F)F)cc3)[C@@H]2C1,inactive: -0.193%
22,COc1ccc(-c2ccc3nnc(CNC(=O)Cc4cccc(F)c4)n3n2)cc1,inactive: 4.81%
23,COc1ccc(-c2ccnc(N[C@H]3CO[C@H]4[C@@H]3OC[C@H]4OCC(N)=O)n2)cc1,inactive: -2.07% [at 57.5 µM]
24,CN1c2cccnc2CN(Cc2cccc(Cl)c2)CC[C@H]1CO,inactive: 5.15% [at 57.5 µM]
25,O=C(NCc1ccc(-c2cnc3c(Oc4ccccc4)nccn23)cc1)c1cccc(O)c1,inactive: 11.3% [at 57.5 µM]

# Random excerpt: three entries already listed, in no set order.
row,SMILES,"activity, negative = inhibition"
20,Cc1ccc(S(=O)(=O)N2C[C@@H]3OCC(=O)N(Cc4ccc(F)cc4)[C@@H]3C2)cc1,inactive: -6.21% [at 57.5 µM]
23,COc1ccc(-c2ccnc(N[C@H]3CO[C@H]4[C@@H]3OC[C@H]4OCC(N)=O)n2)cc1,inactive: -2.07% [at 57.5 µM]
14,O=C(NCC1(O)CCCCC1)C1CCN(c2nc(-c3ccccc3)nc3c2CCC3)CC1,inactive: -5.8%

# Shown bar-delimited: 2 of the compounds above.
row | SMILES | activity, negative = inhibition
6 | CC(=O)NC1(C)CN(Cc2ccc(-c3cccc(C(F)(F)F)c3)nc2)C1 | inactive: -1.89% [at 57.5 µM]
7 | COC(=O)[C@H](Cc1ccc(OC)cc1)NC(=O)[C@H]1CN(C(=O)c2ccc(N(C)C)cc2)CCN1C(=O)C1CCCCC1 | inactive: -2.54%

# Remaining list, next part:

row,SMILES,"activity, negative = inhibition"
1,CCOc1cc(=O)n2c(c1C(=O)Nc1ccc(F)c(C)c1)CCCC2,inactive: 0.524%
2,Fc1cccc(CN2CCC(Cc3nc(-c4ccncc4)n[nH]3)C2)c1 (configuration not stated),inactive: 9.16%
3,COCCN1C(=O)[C@@H]2C[C@@H](CN2C(=O)NCc2ccccc2)Oc2ccccc21,inactive: -24.9% [at 57.5 µM]
4,COc1cccc(CC(=O)NC2CCN(c3cnn(C)c(=O)c3)CC2)c1,inactive: -0.816%
5,O=C1CCCN1CCCN1C(=O)[C@H]2CN(Cc3ccc(F)c(Cl)c3)C[C@H]2C1=O,inactive: 2.63%
6,Cc1ccoc1-c1nc2ccncc2[nH]1,inactive: -13.1% [at 76.7 µM]
7,COc1ccc(C(=O)N2CCc3ccc(C(=O)O)cc32)cc1,inactive: -2.63%
8,CN(CC1CCOC1)C(=O)Nc1cccc(Br)c1 (configuration not stated),inactive: -1.2%
9,C=CCN(C)C(=O)[C@@H](C)C1CC[C@@]2(C)Cc3sc(-c4cccnc4)nc3[C@@H](C)[C@@H]2[C@H]1O (some centres not stated),inactive: -0.244% [at 57.5 µM]
10,CC1=C[C@@H](CC#N)[C@H](C(C)C)C[C@H]1CC(=O)NC1CC1,inactive: -0.565% [at 76.7 µM]
11,CC(=O)NC1CCN(Cc2nc(-c3sccc3C)oc2C)CC1,inactive: -6.96%
12,Cc1ccc(C(=O)N2CCOC(c3ccc(Cl)c(Cl)c3)C2)c(=O)n1C (configuration not stated),inactive: -9.35%
13,O=C(O)c1cccc(-c2n[nH]c3c2CC(=O)N(CCOc2ccccc2)C3)c1,inactive: -7.98% [at 57.5 µM]
14,Cc1oc(C(O)c2ccccc2F)nc1C(=O)Nc1ccccc1C(N)=O (configuration not stated),inactive: 3.2% [at 57.5 µM]
15,O=C(Nc1cccnc1)N1CCOC[C@H](Oc2ccccc2)C1,inactive: 2.16% [at 57.5 µM]
16,COCC1(c2nc(C3CCOCC3)nn2-c2ccccc2)CCC1,inactive: 1.46%
17,c1cc(N2CCOCC2)ncc1-c1noc([C@@H]2CCCN2C2CCOCC2)n1,inactive: 2.28% [at 57.5 µM]
18,O=C(c1ccc(N2CCC(NCC(c3ccccc3)c3ccccc3)CC2)cc1)N1CCCC(O)C1 (configuration not stated),inactive: -1.18%
19,CN(CC1CCOCC1)C(=O)Nc1ccc(Cl)cc1,inactive: -5.57%
20,Cc1ccc(NC(=O)N2CCCC2c2nncn2C2CCCC2)cc1F (configuration not stated),inactive: -3.6%
21,COc1cccc(-c2cc(C(=O)NCCOc3ccccc3)[nH]n2)c1,inactive: -0.0667%
22,CN(Cc1ccccc1)C(=O)[C@@H]1Cc2nc[nH]c2CN1C(=O)CC(C)(C)CC(=O)O,inactive: 21.4% [at 57.5 µM]
23,Cc1ccccc1-c1cnc2[nH]cc(CC(=O)NCc3ccco3)c2c1,inactive: -0.559% [at 57.5 µM]
24,COCC1CN(C(C)=O)CC12CCN(Cc1cccc(C#N)c1)CC2 (configuration not stated),inactive: 6.56%
25,CC(C)(CC(=O)O)CC(=O)N1CCN2C(=O)N(CCc3cccs3)C(=O)[C@H]2C1,inactive: -5.59% [at 57.5 µM]

row,SMILES,"activity, negative = inhibition"
1,OCc1cccc(-c2ccc3ncc(Nc4ccccc4Cl)n3n2)c1,inactive: -5.71% [at 57.5 µM]
2,CCc1[nH]nc(-c2nc(C3CC3)nn2-c2ccc(S(N)(=O)=O)cc2)c1C,inactive: 3.32%
3,COC(=O)[C@@H](Cc1cccnc1)NC(=O)[C@H]1CN(C(=O)Nc2ccccc2)CCN1S(=O)(=O)c1ccccc1,inactive: -4.1%
4,CCCCN1C(=O)[C@@H]2C[C@@H](O)CN2C2(CN(CC3CC3)C2)C1=O,inactive: -1% [at 57.5 µM]
5,CSc1ccc(C(C(=O)O)N2CCN(Cc3csc(C)n3)CC2)cc1 (configuration not stated),inactive: 21.9%
6,CC(C)n1cnnc1-c1nn(C)c2c1CN(C(=O)Cc1c[nH]c3ccccc13)CC2,inactive: -0.623%
7,Cn1ccc2c(C(=O)NCCc3cnc[nH]3)nc(-c3cccc(CO)c3)cc21,inactive: 23.7% [at 57.5 µM]
8,O=C(N[C@@H]1COCC[C@@H]1OCc1ccccc1)c1nc2ncccc2[nH]1,inactive: -0.591%
9,Cn1ccnc1CN1C[C@@H](F)[C@@H](OCc2nc3ccc(C(F)(F)F)cc3[nH]2)C1,inactive: 2.16% [at 57.5 µM]
10,O=C(Nc1ccc([C@H]2OCC(=O)N(Cc3cccnc3)[C@@H]2CO)cc1)c1ccnc(Cl)c1,inactive: -3.55%
11,O=C(c1cc2cn(C3CC3)cc2s1)N1CCc2ccccc2C1,inactive: -7.42%
12,Cc1cc(C(=O)N[C@@H]2CCC[C@@H](C(=O)N3CCN(C)CC3)CC(=O)N(C)C2)no1,inactive: 1.92% [at 57.5 µM]
13,C[C@]1(O)CCN(C(=O)CC(c2ccccc2)c2ccccc2)C[C@@H]1O,inactive: -1.31%
14,CN1Cc2ccc(NCc3ccccc3)nc2C(C)(C(=O)NCCc2cnc[nH]2)C1 (configuration not stated),inactive: -2.85% [at 57.5 µM]
15,CNC(=O)N1CCOc2ccc(CCC(=O)NCC3CC3)cc2C1,inactive: -2.19%
16,Cc1ccc(S(=O)(=O)N2C[C@@H]3OCC(=O)N(Cc4ccc(OC(F)(F)F)cc4)[C@@H]3C2)cc1,inactive: 1.31%
17,CCS(=O)(=O)N1CCC(CC(=O)NCc2ccccc2)C1 (configuration not stated),inactive: -1.44%
18,Cn1nc(C(=O)NCc2nnc3ccc(-c4ccccc4)nn23)c2ccccc21,inactive: -3%
19,Cc1ccc(S(=O)(=O)N2CCn3c(n[nH]c3=O)C2)c(C)c1,inactive: -10.8%
20,CCC[C@@H]1CN(Cc2[nH]cc(C)c(=O)c2C)C[C@H]1C(=O)O,inactive: -6.18%
21,Cc1cc(=O)n(CC(=O)Nc2ccccc2C)c(-c2ccc(F)cc2)n1,inactive: 34%
22,Cc1nn(Cc2ccccc2)c(C)c1[C@@H]1C=C[C@@H](NC(=O)CCCC(=O)O)C1,inactive: -6.73% [at 57.5 µM]
